The values that follow come from patent publication US20210332360.

Sequences of proteins named here, by UniProt entry; tags and fusion partners are left off. Residues count along the entry.
UniProt P11226, 21-248: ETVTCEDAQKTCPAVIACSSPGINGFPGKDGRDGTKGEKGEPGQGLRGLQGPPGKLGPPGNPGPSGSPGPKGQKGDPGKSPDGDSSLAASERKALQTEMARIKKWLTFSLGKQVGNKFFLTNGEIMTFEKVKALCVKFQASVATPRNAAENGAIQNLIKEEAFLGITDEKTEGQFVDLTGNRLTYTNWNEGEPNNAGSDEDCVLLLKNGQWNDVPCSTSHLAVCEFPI

For some assays here: No signal at the amounts used counts as a negative. For some assays here: For at least one entry, the source does not settle the construct or the ends of the probe. For some assays here: Tags and fusion partners may be left off the protein sequences shown.

Series [1] concerns the target Mannose-binding lectin (MBL) (Homo sapiens) (UniProt P11226). Kind of series: flow cytometry. The note with it: after the 5' primer region all dT replaced by 4 (alpha-D-mannose-triazole-modified C8-alkyne-dU); essentially no binding from 0.1 to 100 nM; purified recombinant protein; protein details: ACROBiosystems, fluorescent label; label: particle-displayed, or 5'-biotinTEG in solution; single-stranded DNA.

The target of series [2] is T1, DC-SIGN (DC-SIGNR/CD299) (Homo sapiens) (UniProt Q9H2X3).
T1 sequence (looked up, limits assumed): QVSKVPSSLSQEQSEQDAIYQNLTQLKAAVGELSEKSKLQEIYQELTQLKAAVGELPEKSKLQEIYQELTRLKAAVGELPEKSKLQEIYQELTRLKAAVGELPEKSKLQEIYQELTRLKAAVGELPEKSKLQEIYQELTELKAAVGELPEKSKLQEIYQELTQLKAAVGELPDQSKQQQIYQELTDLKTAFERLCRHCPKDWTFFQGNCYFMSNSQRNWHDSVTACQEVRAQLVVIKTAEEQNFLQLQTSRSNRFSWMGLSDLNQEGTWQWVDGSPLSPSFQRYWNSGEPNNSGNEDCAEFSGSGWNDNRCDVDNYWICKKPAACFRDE
In words: MST. The note with it: after the 5' primer region all dT replaced by 4 (alpha-D-mannose-triazole-modified C8-alkyne-dU); average of 20.4 and 22.7 nM; 25 C; D1 free in solution, 1 nM labeled DC-SIGNR; purified recombinant protein; label: particle-displayed, or 5'-biotinTEG in solution; single-stranded DNA.

One may read the Kd as the constant that tells how readily two partners part at equilibrium. On to “GATCCCAGTCCGAAGTAATCCAAGGGTAATTGGGAAATAAGGATGGGGTAATATGCAACCCTTGTGCAAACGGCTATAGG [D1]”, for which the binding result in series [1] is reported as “no binding”. Further, the Kd in series [2] came to 0.0215 µM.
